± gives the standard deviation of the averaged measurements. Most values lie at the floor of the assay. Slopes are relative: functional sequences can read slightly below zero.

This data set concerns Saccharomyces cerevisiae PS128 hsf1 delta, HSF1(1-493) fusion. Put plainly: growth estimate (transactivation domain function in HSF1 fusion, heat-shock survival) (a.u. (slope of normalised read count over time)); higher = stronger growth at 37°C, i.e. more transactivation activity. To be noted: library: random library.
NLLRSDFVIRAVT: the growth estimate was < -0.25.

With LLPVISACTDRLVAITGRAV, the growth estimate was < -0.25.

Consider KAIGAREGSGVKSRIETNLP, for which the growth estimate is < -0.25.

For the substance RSLSRRHGQGNVRSYS, the growth estimate was < -0.25.

For the substance EQVPAGATVYRNLRFLLLLA, the growth estimate was < -0.25.

Turning to FYCVQGGCGAEPLIARVLKG, the growth estimate is < -0.25.

Turning to LCYR, the growth estimate is -0.156.

Take QFTKCSSDQSVPCFFLLSSP: the growth estimate is -0.248.

Consider AKNSGEAQKYGGHSTKRRRG, for which the growth estimate was < -0.25.

On to SVCCKRFRRPLLCRHTIFLG, for which the growth estimate is < -0.25.

As to ELWPFTGRSKVHQGGTRVAR, the growth estimate was < -0.25.

GAGNWPPLCSGARAWRCSRQ: the growth estimate is < -0.25.

In the case of VARPAGLLRRYRGGCATQTN, the growth estimate is < -0.25.

For the substance HRHCLA, the growth estimate was < -0.25.

Take VKCI: the growth estimate was < -0.25.

Consider MLVSGANL, for which the growth estimate was < -0.25.

On to VQRVWGGGRSGSVTRPMSVA, for which the growth estimate is 0.249.

GSDLWIQYRIYLPGFGVPSP: the growth estimate was < -0.25.

In the case of LNKLWHCRTIFERIDIHTMR, the growth estimate was < -0.25.

Turning to GPFA, the growth estimate is < -0.25.

Turning to ITRVLGICGSMRRAHTVYIE, the growth estimate is < -0.25.

With IWVSLPFSAPFLVQSGGGRG, the growth estimate is < -0.25.

On to CFTGVKGSPWLLAVPIAVGP, for which the growth estimate is -0.241.

Turning to IGTNARRLSKRSTRLTDRML, the growth estimate is < -0.25.

For the substance LQLPPPIPPWFSKSSGARHA, the growth estimate was < -0.25.

TLSQKALHKDANFIQHFLRY: the growth estimate was < -0.25.

As to SLYLIGADRAVSIGWRG, the growth estimate is < -0.25.

Consider FVSGKNRSFNLHVANLKARQ, for which the growth estimate is < -0.25.

With LGSER, the growth estimate is < -0.25.

In the case of VSGIIGECPSKSIDVLEFTV, the growth estimate was < -0.25.

FTVCAELGD: the growth estimate was < -0.25.

In the case of IQSLS, the growth estimate was < -0.25.

GYVQI: the growth estimate is < -0.25.

For LYNSDCCLYRMQCGPSLIHE, the growth estimate is < -0.25.

Consider AAAPSGQRGGRKYARPGAAM, for which the growth estimate is < -0.25.

Consider GTRPRGTWSAQSPTVTGCLG, for which the growth estimate is < -0.25.

Take LHSRLGCTQRRRIPGSWAQS: the growth estimate is < -0.25.

Take RWLEVLS: the growth estimate was < -0.25.

Regarding SFHRGAKGE, the growth estimate was < -0.25.

Consider GRTVLGLKEVHASVAPFQDH, for which the growth estimate is < -0.25.

On to TTIADW, for which the growth estimate is < -0.25.

Take LFSTPRPLRAPDS: the growth estimate is < -0.25.

As for RLKRAWICAVLVRPLCPSAK, the growth estimate was < -0.25.

For the substance LWVIVWAAYTA, the growth estimate was < -0.25.

Regarding KHLH, the growth estimate was < -0.25.

TSSASGAGQCRCIGGRSPLP: the growth estimate was < -0.25.

In the case of APEECH, the growth estimate is < -0.25.

On to LSVILRWVRLH, for which the growth estimate is < -0.25.

Turning to REVLVSDPLLVMGSPSERKN, the growth estimate was < -0.25.

Take GWKTLRIIDSG: the growth estimate is < -0.25.

Turning to RSLRFGLLNHWRIPKG, the growth estimate is < -0.25.

As to QDLMFTDFEESKCGVRGTLK, the growth estimate was < -0.25.

As to TPRAGGSWCTLT, the growth estimate is < -0.25.

Take TQSHGICPREAQTGATPARL: the growth estimate is < -0.25.

Regarding EGGFLRVQLLQVVTVRAASS, the growth estimate is < -0.25.

Turning to RNVNYLSSELYRMESVSSVS, the growth estimate is < -0.25.

On to GITPSAVNLEALLVWIDNLS, for which the growth estimate is < -0.25.

As for TNRDSGLR, the growth estimate was < -0.25.

As for YKSVCIGGLGLTGEYYTILS, the growth estimate was < -0.25.

For the substance SSCDV, the growth estimate is < -0.25.

On to HVGSICHITV, for which the growth estimate is < -0.25.

On to KVYHCDRLIATLPSVERRH, for which the growth estimate was < -0.25.

With PLIRACVSPIYH, the growth estimate is < -0.25.

Consider DPDSALRIYRFGHIRGAGAV, for which the growth estimate was < -0.25.

With VSLG, the growth estimate was < -0.25.

Turning to LSITCGIVTQLRIGQANKIN, the growth estimate is < -0.25.

Take SEVFACGD: the growth estimate was < -0.25.

QEWVCGRQ: the growth estimate was < -0.25.

For the substance VRRCHSLDIVRIPVGIMVVL, the growth estimate is < -0.25.

With HCMQSTRCGTPQNGYNLVQG, the growth estimate is < -0.25.

Turning to GQMPNALKSP, the growth estimate was < -0.25.

Take CTTRMF: the growth estimate was < -0.25.

With RPGVWPGGWEEVLRRP, the growth estimate was 0.788.

In the case of RTFDGWTQLPELTTG, the growth estimate was < -0.25.

Consider DLPILCLFVRS, for which the growth estimate is < -0.25.

In the case of VKPPIVLLLNCYVRGITRPS, the growth estimate is < -0.25.

Turning to GRTPQRLALVVRVRFWKARV, the growth estimate is -0.231.

ASYGTSRRKPSNYSPFASNR: the growth estimate is < -0.25.

As to WNAELLRMGWDQSGIRRGAG, the growth estimate is < -0.25.

For the substance PETGSAIGCSVSGQITFVAQ, the growth estimate was < -0.25.

For RSFDSEESRVG, the growth estimate was < -0.25.

For the substance AHLGWIRPTGVSLGHAP, the growth estimate was < -0.25.

As for LVS, the growth estimate is -0.221 ± 0.046.

Turning to RSL, the growth estimate is < -0.25.

Turning to RKREGRLWPQ, the growth estimate is < -0.25.

For the substance PLTGVI, the growth estimate was < -0.25.

Regarding DKRCSGRTLVSVIPGKRGPV, the growth estimate is < -0.25.

Turning to NGTSIGRVKAILNPQDGVQM, the growth estimate was < -0.25.

In the case of AYAWCHMFNGPPQLKYLGLV, the growth estimate was < -0.25.

For FPLLASS, the growth estimate was < -0.25.

As to FASISLGSTLP, the growth estimate was < -0.25.

With KIVVSR, the growth estimate was < -0.25.

Consider GILRGLRASVSRTGQLQWYD, for which the growth estimate is < -0.25.

Turning to RAVCGSEQAG, the growth estimate is < -0.25.

On to HRTHHLSMGRFRFSMNSTRA, for which the growth estimate is < -0.25.

Regarding NRVVGLYLSSTSGAEFAGRA, the growth estimate was < -0.25.

For the substance MGIEA, the growth estimate is < -0.25.

On to YSRPVRKKWTLSV, for which the growth estimate was < -0.25.

Turning to RSDGPGLARAEVLSCECSAP, the growth estimate was < -0.25.

Turning to SGKEGLVVTLY, the growth estimate is < -0.25.

VSGNRVGICILN: the growth estimate was < -0.25.

With PESLLKTAGAPLTCGLYVSG, the growth estimate was < -0.25.

As for RRK, the growth estimate was < -0.25.

With DLRRRPATKNSAS, the growth estimate was < -0.25.

In the case of MAIGHSFICRPPIKRC, the growth estimate is < -0.25.

For LGLWSYCNTGTRVGD, the growth estimate is < -0.25.

Turning to GGLFHGAFGEAKRSITLAPH, the growth estimate is < -0.25.

PVLITSENVFPPYTFPTCAD: the growth estimate was -0.241.

As to GGMRTLVPVR, the growth estimate is < -0.25.

For the substance GFRAWQLGNQGHRGRRQSQK, the growth estimate is < -0.25.

Consider SQRVQSHVVAAA, for which the growth estimate was < -0.25.

For the substance SGPLPVEIRDGISVRGLVCC, the growth estimate was < -0.25.

As for HYADNHILASFSSSDTVVRH, the growth estimate was < -0.25.

With LSLTWN, the growth estimate was < -0.25.

On to VNI, for which the growth estimate was < -0.25.

These data come from the supplement of paper PMC5949888.
